Laboratory results taken from the supplement of paper PMC8007513.
Some of the results follow. Most values come without repeats; read them as rough.

What follows are compounds tested on Saccharomyces cerevisiae BY4743 (assay: growth (OD600) with compound + IPBC relative to untreated control; higher = less growth inhibition). Conditions: compound concentration: 133 uM; IPBC concentration: 0.5 ug/ml; 20 h.
Description: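 NMCCC compounds (133 uM) combined with IPBC (0.5 ug/ml) against Saccharomyces cerevisiae BY4743 in YPD, 96-well plates. Growth was read as OD600 at 20 h and expressed as % of the untreated control. Single pass.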

| SMILES | growth [%] |
| --- | --- |
| C=C1c2ccccc2C(=O)N1CC(=O)Nc1ccc(Cl)c(Cl)c1 + CCCCNC(=O)OCC#CI [3-iodo-2-propynyl butylcarbamate (IPBC)] | 105 |
| O=C(Nc1nc[nH]n1)c1ccc(C(F)(F)F)cn1 + CCCCNC(=O)OCC#CI [3-iodo-2-propynyl butylcarbamate (IPBC)] | 96.3 |
| CCC(=O)Nc1ccc(S(=O)(=O)N2CCN(C)c3ccccc32)cc1 + CCCCNC(=O)OCC#CI [3-iodo-2-propynyl butylcarbamate (IPBC)] | 84.6 |
| Cc1ccc2c(c1)NC(C(C)C)NS2(=O)=O (stereo not given) + CCCCNC(=O)OCC#CI [3-iodo-2-propynyl butylcarbamate (IPBC)] | 83.3 |
| CCCC(C(=O)Nc1cc(OC)c(OC)c(OC)c1)N1Cc2ccccc2C1=O (stereo not given) + CCCCNC(=O)OCC#CI [3-iodo-2-propynyl butylcarbamate (IPBC)] | 105 |
| COc1ccc(NC(=O)c2c(C)nn(Cc3ccccc3Cl)c2C)cc1 + CCCCNC(=O)OCC#CI [3-iodo-2-propynyl butylcarbamate (IPBC)] | 80.7 |
| CC1=CC=C(C=C1)[S](=O)(=O)N2\C=C/C3=CC=CC=C3C2C#N (stereo not given) + CCCCNC(=O)OCC#CI [3-iodo-2-propynyl butylcarbamate (IPBC)] | 92 |
| CCC(C)(C)C1CCC(NC(=O)c2ccc(N3CCOCC3)nc2)CC1 (stereo not given) + CCCCNC(=O)OCC#CI [3-iodo-2-propynyl butylcarbamate (IPBC)] | 110 |
| Fc1ccc(-c2csc(-c3cccs3)n2)cc1 + CCCCNC(=O)OCC#CI [3-iodo-2-propynyl butylcarbamate (IPBC)] | 89.9 |
| CCOC(=O)c1c(C)[nH]c(C)c1C(=O)CN1CCc2cc(OC)c(OC)cc2C1 + CCCCNC(=O)OCC#CI [3-iodo-2-propynyl butylcarbamate (IPBC)] | 103 |
| CCOc1ccc(OCC)c(NC(=O)Nc2ccc3c(c2)N(C)C(=O)CS3)c1 + CCCCNC(=O)OCC#CI [3-iodo-2-propynyl butylcarbamate (IPBC)] | 91.6 |
| NC(=O)c1cc(Cl)ccc1OCC(=O)Nc1ccc(N2CCCCC2)cc1 + CCCCNC(=O)OCC#CI [3-iodo-2-propynyl butylcarbamate (IPBC)] | 99.6 |
| Nc1nccnc1C(=O)OCc1cc2c(cc1Br)OCCO2 + CCCCNC(=O)OCC#CI [3-iodo-2-propynyl butylcarbamate (IPBC)] | 95.5 |
| NS(=O)(=O)c1ccc(CCN2C(=O)NC(NC(=O)c3ccccc3)(C(F)(F)F)C2=O)cc1 (stereo not given) + CCCCNC(=O)OCC#CI [3-iodo-2-propynyl butylcarbamate (IPBC)] | 108 |
| CC(C)CCNC(=O)c1cc2n(n1)CC(C)(C(=O)NCc1ccc(F)cc1)N(C)C2=O (stereo not given) + CCCCNC(=O)OCC#CI [3-iodo-2-propynyl butylcarbamate (IPBC)] | 108 |

Pulled one by one from above:

| SMILES | growth [%] |
| --- | --- |
| Nc1nccnc1C(=O)OCc1cc2c(cc1Br)OCCO2 + CCCCNC(=O)OCC#CI [3-iodo-2-propynyl butylcarbamate (IPBC)] | 95.5 |
| Fc1ccc(-c2csc(-c3cccs3)n2)cc1 + CCCCNC(=O)OCC#CI [3-iodo-2-propynyl butylcarbamate (IPBC)] | 89.9 |
